Tested on: locust brain barrier
Details: exposure 3, 10, 30 and 100 μmol/L for 5 min; Fig. 3; n = 3

In the case of `CC(C)NCC(O)COc1ccc(CC(N)=O)cc1` (stereo not shown) [Atenolol, atenolol], the “Concentration-dependent ex vivo brain uptake profile” value is reported as “linear increase”.

Source: article PMC4186439, “Characterization of a novel brain barrier ex vivo insect-based P-glycoprotein screening model” (Pharmacology Research & Perspectives, 2014)
